Source: patent publication US20100279930A1 (published 2010)

The chains behind the UniProt entries cited, without tags or fusion partners. Where a name states a change or a piece, a line headed by the entry shows the natural chain unless it says otherwise.
UniProt P50391: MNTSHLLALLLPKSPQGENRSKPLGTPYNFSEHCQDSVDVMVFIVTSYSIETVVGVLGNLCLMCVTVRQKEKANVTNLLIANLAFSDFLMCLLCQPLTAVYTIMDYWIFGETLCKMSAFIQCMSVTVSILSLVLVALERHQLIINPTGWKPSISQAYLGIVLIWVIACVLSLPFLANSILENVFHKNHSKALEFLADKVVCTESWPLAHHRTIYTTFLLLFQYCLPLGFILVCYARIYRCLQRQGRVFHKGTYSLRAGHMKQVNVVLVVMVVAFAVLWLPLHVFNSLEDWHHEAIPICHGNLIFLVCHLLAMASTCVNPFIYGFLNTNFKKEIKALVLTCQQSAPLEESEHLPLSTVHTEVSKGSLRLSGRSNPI

Biological target: human Y4 receptor (human, UniProt P50391 1-375)
Experiment: 125I-PP displacement

B1: 4058066 (protein)
chain: CAPLEPTYPGDNATPEQLARYYSALRRYINLLTRPRYCAPLEPTYPGDNATPEQLARYYSALRRYINLLTRPRY
  IC50: 0.143 nM
